Paper PMC9534319
No constants are given. Whether binding was seen depends on the method and setting. Some results given as binding are weak or reduced against the parent protein; the word gives no strength.

Protein sequences, listed by entry. Tags and fused reporters are not part of them. Lines headed by an entry give the natural chain unless they say otherwise; changes in a name come on top.
UniProt P02452: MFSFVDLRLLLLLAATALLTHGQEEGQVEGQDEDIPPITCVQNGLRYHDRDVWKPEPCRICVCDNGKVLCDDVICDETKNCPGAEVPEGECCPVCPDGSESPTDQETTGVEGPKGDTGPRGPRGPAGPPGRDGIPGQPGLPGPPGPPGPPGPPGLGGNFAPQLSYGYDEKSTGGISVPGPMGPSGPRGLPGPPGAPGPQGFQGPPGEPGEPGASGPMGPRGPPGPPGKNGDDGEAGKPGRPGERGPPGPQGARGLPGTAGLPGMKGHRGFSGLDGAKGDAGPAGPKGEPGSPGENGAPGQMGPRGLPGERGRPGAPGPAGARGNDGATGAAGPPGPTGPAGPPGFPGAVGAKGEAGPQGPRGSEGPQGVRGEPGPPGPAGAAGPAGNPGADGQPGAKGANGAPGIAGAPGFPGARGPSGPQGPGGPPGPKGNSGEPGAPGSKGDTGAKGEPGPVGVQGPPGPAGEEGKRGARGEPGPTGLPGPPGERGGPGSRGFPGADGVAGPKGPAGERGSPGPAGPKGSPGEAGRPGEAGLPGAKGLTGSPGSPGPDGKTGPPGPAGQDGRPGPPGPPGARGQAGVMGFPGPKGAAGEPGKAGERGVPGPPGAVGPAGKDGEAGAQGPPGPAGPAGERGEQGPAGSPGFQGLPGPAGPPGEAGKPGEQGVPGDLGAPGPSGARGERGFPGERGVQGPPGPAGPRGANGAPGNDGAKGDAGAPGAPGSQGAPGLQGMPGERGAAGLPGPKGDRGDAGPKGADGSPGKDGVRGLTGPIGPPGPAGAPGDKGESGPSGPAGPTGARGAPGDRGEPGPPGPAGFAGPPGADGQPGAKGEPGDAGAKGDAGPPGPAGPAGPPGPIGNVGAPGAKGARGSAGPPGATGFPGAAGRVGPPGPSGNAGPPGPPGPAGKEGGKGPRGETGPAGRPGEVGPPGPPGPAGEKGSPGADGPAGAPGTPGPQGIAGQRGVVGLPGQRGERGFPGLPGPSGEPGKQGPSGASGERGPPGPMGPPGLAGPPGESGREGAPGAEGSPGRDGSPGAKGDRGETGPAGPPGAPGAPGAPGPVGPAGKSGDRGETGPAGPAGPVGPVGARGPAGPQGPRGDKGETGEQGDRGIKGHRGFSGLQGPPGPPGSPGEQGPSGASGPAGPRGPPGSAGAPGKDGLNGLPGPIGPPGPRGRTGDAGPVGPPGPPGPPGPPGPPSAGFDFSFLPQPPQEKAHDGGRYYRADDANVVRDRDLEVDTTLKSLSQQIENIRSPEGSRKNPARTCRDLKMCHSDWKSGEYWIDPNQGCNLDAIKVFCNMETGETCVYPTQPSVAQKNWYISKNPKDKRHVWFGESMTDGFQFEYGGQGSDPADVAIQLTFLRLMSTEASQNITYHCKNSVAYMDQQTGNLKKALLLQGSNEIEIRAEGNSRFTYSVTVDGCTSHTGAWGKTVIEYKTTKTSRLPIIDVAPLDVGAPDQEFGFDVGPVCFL

Target: Collagen I (UniProt P02452)
Assay: ELISA; competition ELISA: Collagen I coated on 96-well plate at 1 μg/ml; LAIR1-hFc (2 μg/ml) pre-incubated with h219, h94 or hIgG (5 μg/ml), added after blocking with 5% non-fat milk; detected with HRP conjugated goat anti-human IgG Fc; both purified

binding: binds
B1: LAIR1-hFc (Fc fusion, UniProt Q6GTX8 22-165)
chain: QEEDLPRPSISAEPGTVIPLGSHVTFVCRGPVGVQTFRLERDSRSTYNDTEDVSQASPSESEARFRIDSVREGNAGLYRCIYYKPPKWSEQSDYLELLVKESSGGPDSPDTEPGSSAGPTQRPSDNSHNEHAPASQGLKAEHLY
